No constants are given. Whether binding was seen depends on the method and setting. Binding seen in cells or lysates may run through a third protein. Some binding calls cover weakened binding; strength is not graded here.

By UniProt entry, the sequences of proteins in these tests, tags left out.
UniProt P49327: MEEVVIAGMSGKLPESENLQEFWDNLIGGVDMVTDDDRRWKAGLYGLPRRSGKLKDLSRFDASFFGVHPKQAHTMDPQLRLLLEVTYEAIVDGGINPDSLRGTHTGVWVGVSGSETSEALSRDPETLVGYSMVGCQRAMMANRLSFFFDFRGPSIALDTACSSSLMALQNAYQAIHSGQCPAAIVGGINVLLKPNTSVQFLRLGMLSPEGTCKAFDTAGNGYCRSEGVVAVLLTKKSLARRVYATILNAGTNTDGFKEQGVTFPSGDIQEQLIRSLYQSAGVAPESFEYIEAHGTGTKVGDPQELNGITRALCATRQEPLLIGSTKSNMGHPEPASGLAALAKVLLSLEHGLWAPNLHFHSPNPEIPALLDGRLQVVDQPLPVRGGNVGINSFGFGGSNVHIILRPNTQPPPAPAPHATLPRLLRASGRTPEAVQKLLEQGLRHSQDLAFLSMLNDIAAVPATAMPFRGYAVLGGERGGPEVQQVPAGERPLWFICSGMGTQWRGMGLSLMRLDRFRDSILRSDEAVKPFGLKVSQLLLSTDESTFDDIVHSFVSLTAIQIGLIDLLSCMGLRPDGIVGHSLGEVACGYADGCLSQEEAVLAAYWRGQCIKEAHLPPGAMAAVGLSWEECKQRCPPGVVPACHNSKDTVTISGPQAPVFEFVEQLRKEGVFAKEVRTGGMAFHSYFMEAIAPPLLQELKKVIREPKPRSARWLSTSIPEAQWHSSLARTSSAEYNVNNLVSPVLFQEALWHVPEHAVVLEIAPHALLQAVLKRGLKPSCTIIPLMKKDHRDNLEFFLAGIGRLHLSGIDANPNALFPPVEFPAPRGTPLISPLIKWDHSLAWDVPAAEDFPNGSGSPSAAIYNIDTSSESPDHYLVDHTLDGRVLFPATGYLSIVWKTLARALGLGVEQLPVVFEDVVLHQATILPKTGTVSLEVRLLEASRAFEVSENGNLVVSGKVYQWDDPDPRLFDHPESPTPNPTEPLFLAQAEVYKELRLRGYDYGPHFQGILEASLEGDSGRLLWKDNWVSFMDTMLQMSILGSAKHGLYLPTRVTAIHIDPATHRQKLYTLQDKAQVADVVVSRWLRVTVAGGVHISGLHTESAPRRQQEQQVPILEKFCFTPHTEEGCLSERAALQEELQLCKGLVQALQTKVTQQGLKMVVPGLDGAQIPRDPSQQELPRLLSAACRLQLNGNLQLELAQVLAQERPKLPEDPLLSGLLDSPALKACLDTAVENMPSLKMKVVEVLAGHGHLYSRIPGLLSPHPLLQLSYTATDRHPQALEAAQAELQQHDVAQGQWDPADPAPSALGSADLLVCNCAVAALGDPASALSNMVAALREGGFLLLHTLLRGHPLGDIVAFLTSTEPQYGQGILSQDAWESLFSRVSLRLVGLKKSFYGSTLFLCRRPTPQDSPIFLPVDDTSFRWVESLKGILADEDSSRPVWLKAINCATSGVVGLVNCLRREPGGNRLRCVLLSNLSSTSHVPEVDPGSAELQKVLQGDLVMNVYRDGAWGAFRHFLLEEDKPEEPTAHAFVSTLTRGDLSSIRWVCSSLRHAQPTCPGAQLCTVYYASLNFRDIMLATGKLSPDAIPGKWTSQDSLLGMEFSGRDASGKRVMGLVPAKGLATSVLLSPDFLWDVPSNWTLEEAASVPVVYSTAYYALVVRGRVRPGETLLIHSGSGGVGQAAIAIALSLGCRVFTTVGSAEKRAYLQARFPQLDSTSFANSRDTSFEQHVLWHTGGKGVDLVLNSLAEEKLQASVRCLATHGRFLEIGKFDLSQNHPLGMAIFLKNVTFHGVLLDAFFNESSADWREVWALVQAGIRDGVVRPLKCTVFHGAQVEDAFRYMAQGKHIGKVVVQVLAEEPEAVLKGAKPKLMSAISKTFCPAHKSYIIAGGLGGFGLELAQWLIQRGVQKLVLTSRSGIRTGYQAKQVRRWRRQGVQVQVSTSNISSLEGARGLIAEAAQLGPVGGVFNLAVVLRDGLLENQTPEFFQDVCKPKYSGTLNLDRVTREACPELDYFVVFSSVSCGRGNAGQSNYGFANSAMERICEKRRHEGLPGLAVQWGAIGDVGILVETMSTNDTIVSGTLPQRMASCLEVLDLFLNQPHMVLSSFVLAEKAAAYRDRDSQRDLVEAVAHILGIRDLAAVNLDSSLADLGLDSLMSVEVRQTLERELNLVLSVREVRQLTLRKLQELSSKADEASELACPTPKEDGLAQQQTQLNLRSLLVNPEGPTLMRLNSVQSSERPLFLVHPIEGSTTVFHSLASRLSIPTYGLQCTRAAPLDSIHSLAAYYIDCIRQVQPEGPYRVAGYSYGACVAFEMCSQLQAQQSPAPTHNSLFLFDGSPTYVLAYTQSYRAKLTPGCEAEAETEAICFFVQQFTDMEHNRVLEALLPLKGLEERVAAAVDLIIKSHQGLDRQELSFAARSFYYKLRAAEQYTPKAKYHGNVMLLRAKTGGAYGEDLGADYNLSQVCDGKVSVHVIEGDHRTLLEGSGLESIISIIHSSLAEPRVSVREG

This test concerns the target Fatty acid synthase (human (endogenous in HepG2 and SMMC7721)) (UniProt P49327). The test can be described thus: co-IP; 1 mg whole cell lysate of HepG2 or SMMC7721 cells with 2 µg FASN antibody overnight at 4 °C, Protein A/G agarose beads; western blot; normal rabbit IgG and beads as negative controls.

B1: Signal-induced proliferation-associated protein 1 (protein, UniProt Q96FS4 1-1042)
chain: MPMWAGGVGSPRRGMAPASTDDLFARKLRQPARPPLTPHTFEPRPVRGPLLRSGSDAGEARPPTPASPRARAHSHEEASRPAATSTRLFTDPLALLGLPAEEPEPAFPPVLEPRWFAHYDVQSLLFDWAPRSQGMGSHSEASSGTLASAEDQAASSDLLHGAPGFVCELGGEGELGLGGPASPPVPPALPNAAVSILEEPQNRTSAYSLEHADLGAGYYRKYFYGKEHQNFFGMDESLGPVAVSLRREEKEGSGGGTLHSYRVIVRTTQLRTLRGTISEDALPPGPPRGLSPRKLLEHVAPQLSPSCLRLGSASPKVPRTLLTLDEQVLSFQRKVGILYCRAGQGSEEEMYNNQEAGPAFMQFLTLLGDVVRLKGFESYRAQLDTKTDSTGTHSLYTTYQDHEIMFHVSTMLPYTPNNQQQLLRKRHIGNDIVTIVFQEPGSKPFCPTTIRSHFQHVFLVVRAHTPCTPHTTYRVAVSRTQDTPAFGPALPAGGGPFAANADFRAFLLAKALNGEQAAGHARQFHAMATRTRQQYLQDLATNEVTTTSLDSASRFGLPSLGGRRRAAPRGPGAELQAAGSLVWGVRAAPGARVAAGAQASGPEGIEVPCLLGISAEALVLVAPRDGRVVFNCACRDVLAWTFSEQQLDLYHGRGEAITLRFDGSPGQAVGEVVARLQLVSRGCETRELALPRDGQGRLGFEVDAEGFVTHVERFTFAETAGLRPGARLLRVCGQTLPSLRPEAAAQLLRSAPKVCVTVLPPDESGRPRRSFSELYTLSLQEPSRRGAPDPVQDEVQGVTLLPTTKQLLHLCLQDGGSPPGPGDLAEERTEFLHSQNSLSPRSSLSDEAPVLPNTTPDLLLATTAKPSVPSADSETPLTQDRPGSPSGSEDKGNPAPELRASFLPRTLSLRNSISRIMSEAGSGTLEDEWQAISEIASTCNTILESLSREGQPIPESGDPKGTPKSDAEPEPGNLSEKVSHLESMLRKLQEDLQKEKADRAALEEEVRSLRHNNRRLQAESESAATRLLLASKQLGSPTADLA
Consider B1, for which the binding entry was “binds”.

B2: CD59 glycoprotein (protein, UniProt P13987 26-102)
chain: LQCYNCPNPTADCKTAVNCSSDFDACLITKAGLQVYNKCWKFEHCNFNDVTTRLRENELTYYCCKKDLCNFNEQLEN
In the case of B2, the binding entry is “binds”.

The record behind these values is paper PMC7372886.
